Consider two molecules from patent US20250382362A1 (UNIVERSIT TSKLINIKUM REGENSBURG, published 2025).

Chains of the proteins cited; added tags and fusions are not shown. Lines headed by an entry give the natural chain unless they say otherwise; changes in a name come on top.
UniProt P08700: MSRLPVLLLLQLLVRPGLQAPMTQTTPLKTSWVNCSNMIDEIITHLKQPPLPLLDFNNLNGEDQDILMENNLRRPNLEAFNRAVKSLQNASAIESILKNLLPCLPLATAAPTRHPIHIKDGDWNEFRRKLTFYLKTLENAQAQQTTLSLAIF

These are yes or no findings as the source states them, for the method shown. Some binding calls cover weakened binding; strength is not graded here.

The assay concerns the target biotinylated IL-3 (Homo sapiens (Human)) (UniProt P08700). Description: flow cytometry, antibody dilutions preincubated with biotinylated IL-3, then basophils in EDTA blood.

B1: Chimeric P8C11 (antibody, V domains shown)
VH: QVQLQQSGAEMVRPGVSVKIACKGSGFTFTDYALHWVKQSHAKSLEWIGLISTYYGDTTYNQRFKGKATMTVDKSSSTAYMELARLTSEDSAIYYCVITTVAGTDAMDYWGQGTSVTVSS
VL: DIQMNQSPSSLSASLGDTITITCHASQNINVWLSWYQQKPGNIPKLLIYKASNLHTGVPSRFSGSGSGTGFTLTISSLQPEDIATYYCQQGYSYPYTFGGGTKLEIK
Take B1: the binding result is reported as “binds”.

B2: GRT002-H16L2 (antibody, human IgG1, kappa, V domains shown)
VH: QVQLVQSGAEVKKPGASVKVSCKGSGFTFTDYALHWVRQAPGQRLEWMGLISTYYGDTTYNQRFKGRVTMTVDKSTSTAYMELSSLRSEDTAVYYCVITTVAGTDAMDYWGQGTLVTVSS
VL: DIQMTQSPSSLSASVGDRVTITCHASQNINVWLSWYQQKPGKAPKLLIYKASNLHTGVPSRFSGSGSGTDFTFTISSLQPEDIATYYCQQGYSYPYTFGGGTKLEIKR
notes: IgG1 of the G1m3 (heavy chain) and KM3 (light chain) allotype, lacks the C-terminal lysine; also called HC16 × LC2; humanized derivative of antibody P8C11
With B2, the binding result is given as “binds”.
